Reference: PubChem BioAssay AID1794845 (National Center for Advancing Translational Sciences (NCATS), 2023)
Out of some 6,900 compounds screened, fewer than 10 were called active. The call rests on the fitted dose curve; in most records, active means well fitted curve in the direction sought with a large enough effect; inconclusive means small, poorly fitted or top-dose-only effect, or another doubt; inactive means no such curve, though single readings can be large or run the other way. Some of the results follow.

Sequences of proteins named here, by UniProt entry; tags and fusion partners are left off. A change or cut given only in a name is not applied to a line headed by its entry.
UniProt C7C422: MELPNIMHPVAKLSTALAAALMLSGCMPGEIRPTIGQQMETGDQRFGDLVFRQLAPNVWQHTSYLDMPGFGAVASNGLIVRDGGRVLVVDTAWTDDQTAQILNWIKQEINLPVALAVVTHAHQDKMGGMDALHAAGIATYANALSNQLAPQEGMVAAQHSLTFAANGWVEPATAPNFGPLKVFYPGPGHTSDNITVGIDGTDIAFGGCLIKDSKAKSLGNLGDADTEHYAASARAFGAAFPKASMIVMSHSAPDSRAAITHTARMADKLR

Each compound was assayed against Metallo-beta-lactamase type 2 (Klebsiella pneumoniae) (UniProt C7C422) (assay: qHTS to identify inhibitors of the New Delhi Metallo-beta-lactamase (NDM): primary screen against the NCATS Gemini Collection). Details: NDM-1 enzyme, meropenem hydrolysis, absorbance 300 nm; at 38.4 µM (top of the series) unless noted.
Source text: Assay Submitter (PI): James Inglese Ph.D., Patricia Dranchak Ph.D., Mahesh Aitha Ph.D. Assay Development and Screening Technology Laboratory (ADST) National Center for Advancing Translational Sciences (NCATS), Rockville, MD National Institute of Health (NIH), Bethesda, Maryland The metallo-beta-lactamases (MBL) are a main antibiotic resistance mechanism evolved by bacteria. There is an urgent clinical need for MBL inhibitors to mitigate this growing threat. To support a machine-based learning study, qHTS has been used to experimentally test inhibitors identified by prediction tools.
PROTOCOL TABLE (as described by Inglese et al., 2007) SEQUENCE No. (e.g., 1, 2, 3, etc.); […] (e.g., enzyme, Incubation, Reagent, etc.); VALUE; DESCRIPTION 1; NDM-1; 4 uL of 3 nM enzyme [2 nM final] in 50 mM HEPES (pH 7.0), 1 uM […], 0.01% Tween20; Use BioRaptr to dispense into Aurora black, clear bottom low base 1536-well plates 2; Compounds; 23 nL; Use Pin Tool (Wako) to transfer DMSO control and library compounds in DMSO 3; Incubate; >30 min 4; Reagent; 2 uL of 150 uM meropenem [50 uM final] 5; Incubate; 30 min. 6; Detector; Absorbance at 300 nm (bandwidth = 5 nm, 25 flashes/well) on Tecan Infinity NOTES (numbers refer to sequence above) 1; Column 1 of each plate received assay buffer without enzyme and columns 2-48 received enzyme for a final assay concentration of 2 nM. 2; Control plate contained DMSO in columns 1, 2, 3, and 4. 3; Compound interaction with enzyme. 4; Meropenem substrate was prepared in the same assay buffer as step 1 for a final assay concentration of 50 uM and added to all wells across the assay plates. 5; Substrate interaction with enzyme, plateau phase of kinetics. 6; Default reader settings were applied for absorbance read at 300 nm, bandwidth = 5 nm, 25 flashes/well. References: Inglese J, Shamu CE, Guy RK. 2007. Reporting data from high-throughput screening of small-molecule libraries. Nat Chem Biol. doi:10.1038/nchembio0807-438 Yasgar A, Shinn P, Jadhav A, Auld D, Michael S, Zheng W, Austin CP, Inglese J, Simeonov A. 2008. Compound Management for Quantitative High-Throughput Screening. J Lab Autom 13:79 - 89. doi:10.1016/j.jala.2007.12.004
Further: % of control where 0% means no effect.

Activity % (negative = inhibition), inactive:
O=C(N[C@H]1CCN2C(=O)[C@@H](Cc3c[nH]c4ccccc34)NC(=O)[C@H]12)c1cnccn1 3.9% [at 57.5 µM], Cc1cc(CN2CCC3(CC2)CCN(Cc2cscn2)CC3CO)on1 (configuration not stated) 14.6%, Cc1nc(C2CC23CCN(S(=O)(=O)c2cccc(F)c2)CC3)no1 (configuration not stated) 6.28%, CCCNC(=O)N1CCCCCC1CN1CCCC1 (configuration not stated) 39.7%, COc1cccc(N2CCN(C(=O)C3CCCN(c4cnc5nccnc5c4)C3)CC2)c1 (configuration not stated) 2.12%, C=CCNC(=O)C(NC(=O)c1ccc(OC)cc1)C1CCN(C(=O)CCc2ccccc2)CC1 (configuration not stated) 29.3%, O=C(NCCc1csc(-c2cnccn2)n1)C1CC2(CCNCC2)CN1 (configuration not stated) 35.4%, CC(=O)N1CCC2(CC1)CC(c1cccc(C(F)(F)F)c1)=NO2 -5.33% [at 57.5 µM], CN1CCc2[nH]cnc2C12CCN(C(=O)Cc1ccc(F)cc1Cl)CC2 -2.31%, COC[C@@H]1CN(C(=O)CC2=CCCCC2)C[C@H]1c1ccncc1 -0.277%, O=C(Cn1c(=O)oc2ccccc21)N1CCCC(Cc2noc(-c3ccccc3)n2)C1 (configuration not stated) -5.97%, CC1Oc2ccc(NC(=O)CC(C)(C)C)cc2CN(CCc2ccccc2)C1=O (configuration not stated) -15.3%, Cc1nc([C@H]2CCN(Cc3cccc(OC(F)(F)F)c3)C[C@H]2NC(=O)C2CC2)n[nH]1 20.6%, COc1ccccc1-c1ccc(C(=O)N2CCC(N[S+](=O)([O-])c3ccccc3)CC2)cc1 4.17%, Cc1noc(C)c1-c1cc2cc(CN(C)C)oc2c(N2CCOCC2)n1 4.61% [at 57.5 µM], CCCn1c(C)cnc1CCNC(=O)CC1CCN(C(C)=O)CC1 15.7%, Cc1cccc(C(=O)N2CCC(c3nc(C4CCOCC4)no3)C2)c1 (configuration not stated) -8.94%, CN1CCC2(CCC1=O)CN(C(=O)CCOc1ccccc1)CCN2C (configuration not stated) 7.81%, CCc1nc(-c2c3n(c(=O)n(CC(=O)NC4CCCC4)c2=O)CCCCC3)no1 -0.651%, CC(=O)c1c(C)nn(CCC(=O)N2CCC3(CC2)[C@H](O)C[C@@H]3O)c1C -2.52%, COc1ccc(-c2cn3cc(C(=O)N4CCCCC4)nc3c(=O)n2CC2CC2)cc1 11.3%, CN(C)[C@@H]1CN(Cc2ccccn2)CC[C@@H]1CO -4.69%, O=C1CC2CCN(C(=O)C3CCCCC3)CC2CCN1 (configuration not stated) -1.99% [at 57.5 µM], Cc1ccc(C(CC(=O)N2CCCCC2)c2cn(C)c3ccccc23)cc1 (configuration not stated) 13.4%, O=C1CCC2(CCCN(c3ncccc3F)C2)CN1Cc1ccncc1 (configuration not stated) 0.99%, COc1ccc(C(=O)N2CCC(Cn3c(C)cnc3C3CCC3)CC2)c(OC)c1 0.471%, CC(C)c1nccn1Cc1cc(C(=O)N(C)Cc2ccccc2Cl)n[nH]1 0.0528%, O=C(c1cccc(-c2ccccn2)c1)N1CCN([S+](=O)([O-])c2ccccc2)CC1 2.81%, C[S+](=O)([O-])c1ccc(-c2nnc3ccc(C(=O)NC4CCCCC4)cn23)cc1 -5.27%, CCn1c(C)ccc(C(=O)N2CCc3[nH]nc(-c4ccccc4F)c3C2)c1=O 0.437%, COc1ccc(CCNC(=O)c2ccc3nnc(C4CC4)n3c2)cc1 2.78% [at 57.5 µM], CC(C)(C)C(=O)N[C@H]1C[C@@H](Cc2cc(CN3CCN(c4ccccc4)CC3)on2)C1(C)C 2.29%, COc1ccc(-c2ccccc2NC(=O)C2CCCN2C(=O)c2cccnc2)cc1 (configuration not stated) 1.57%, COc1ccc(C(=O)N2CCC3(CC2)CC(N(Cc2ccccc2)C2CC2)CCO3)cn1 (configuration not stated) 1.49%, Cc1cc2nc3n(c(=O)c2n1CC(=O)NCCc1ccc(Cl)cc1)CCCC3 10.3%, C=CCNC(=O)N[C@H]1CO[C@H]2[C@@H]1OC[C@@H]2Nc1nccc(C(C)(C)C)n1 8.34% [at 57.5 µM], CN(c1ccccc1)c1cc(=O)c2ccnc(NCC3CCOCC3)c2o1 15.4% [at 57.5 µM], O=C(CCc1cc2n(n1)CCNC2)NCc1nc2ccc(Cl)cc2[nH]1 -5.97%, O=C(CC1CCCC1)N1CC(c2nc(CCOCc3ccccc3)no2)C1 16.8%, C[C@H](C(=O)N1CCSCC1)C1CC[C@@]2(C)Cc3sc(Nc4c(Cl)cccc4Cl)nc3[C@@H](C)[C@@H]2[C@H]1O (some centres not stated) 1.59%, O=C(N[C@@H]1C[C@H](Cn2cc(CN3CCS(=O)(=O)CC3)nn2)[C@@H](O)[C@H]1O)C1CCCC1 18.6%, Cc1ccccc1COC1CN(C(=O)C2CCN(C(=O)C3CC3)CC2)C1 -4.72%, CCOc1ccc(-c2cc3c(=O)n(CCNC(=O)c4ccoc4)ccn3n2)cc1 2.68%, CN1CCN(C)c2cnc(-c3cnn(Cc4ccccc4)c3)cc2C1 2.76% [at 57.5 µM], COc1c(F)cccc1CN1CCOc2cc([S+](N)(=O)[O-])ccc2C1 1.62% [at 57.5 µM], O=C(Cc1ccccc1F)Nc1cnc(-c2cccnc2)nc1 7.78%, c1cc2c(cc1N1CCC(N3CCC4(CCNCC4)C3)CC1)OCO2 10.7%, CCCCS(=O)(=O)N1CCCC2(C1)Nc1cccnc1NC2=NCc1ccccc1 (configuration not stated) -0.477%, O=C(NC1CCCCC1)[C@@H]1Cc2nc[nH]c2CN1Cc1ccc(Cl)cc1 10.4% [at 57.5 µM], COc1ccc(C(C(=O)O)N2CCN(Cc3csc(C)n3)CC2)cc1C (configuration not stated) -1.02%, CCN1c2cc(C(=O)Nc3cccc(C(F)(F)F)c3)ccc2C(=O)N2CCCCC21 (configuration not stated) 11%, CC(=O)N1CCC(N2C[C@H](O)C[C@H]2c2nc(CS(=O)(=O)c3ccc(C)cc3)no2)CC1 -0.0052%, Cc1ccc2c(c1)N(CCCC(=O)N1CCC(C)(c3noc(C4CC4)n3)CC1)C(=O)CO2 32.8%, O=C(O)c1cccc(CC2CCN(C(=O)CCC(F)(F)F)C2)c1 (configuration not stated) 1.67%, O=C(N[C@@H]1CN(C(=O)Nc2ccccc2)CCC[C@H]1O)c1ccc(O)cc1 4.87% [at 57.5 µM], COCC(=O)N1CC(C(=O)O)C2(CCOCC2)C1 (configuration not stated) 47.6%, CC(C)[S+](=O)([O-])N1CCN(c2ccc(Cl)nn2)C(=O)C1 6.34%, O=C(Cc1ccccn1)NCCNC(=O)c1ccc(-c2cccc(C(F)(F)F)c2)cc1 8.41%, CN(Cc1ccc2nonc2c1)Cc1cn(-c2ccccc2)nn1 1.06%, CCNC(=O)[C@@H]1C[C@H](NC(=O)c2oc(C)nc2C)CN1Cc1nc(C)no1 -13.4%, COc1cccc(CN2C[C@]34C=C[C@H](O3)C(C(=O)N3CCCCC3)C4C2=O)c1 (some centres not stated) 0.0273%, CN(C)c1ccc(-c2noc([C@@H]3CCCN3C3CCOCC3)n2)cn1 16% [at 57.5 µM], CCCc1nc(C(=O)N[C@H]2COC[C@H]2Cc2cc(C)no2)cs1 0.368%, c1ccc2[nH]c([C@H]3CCN(CC4CCCCC4)C3)nc2c1 1.62% [at 77.1 µM], COc1ccc(C(=O)N2CCOCCNC(=O)CC2)c(OC)c1 0.393%, CCOCCCNC(=O)N1CC2CN(CCOC)CC(C1)O2 -0.804%, COc1ccc(C[C@H](NC(=O)C2=C[C@@H](Oc3cc(F)ccc3Br)[C@H](O)[C@H](O)C2)C(N)=O)cc1 1.94%, CN(C)C[C@@H]1CN(c2ncccn2)C[C@H]1NC(=O)c1ccc(Cl)cc1 3.35%, OC1(CN2CCCCC2)CCN(Cc2ccc(C(F)(F)F)cc2F)C1 (configuration not stated) -0.69%, COCCn1ncc(N2CCC(C(=O)NCCCN3CCC(N4CCCCC4)CC3)C2)cc1=O (configuration not stated) 1.59%, CC(C)N1CCN(C(=O)C2N(C(C)C)C(=O)C23CCCC3)CC1 (configuration not stated) -15.5%, O=C(NCc1cccnc1)[C@@H]1C[C@@H](O)CN1C1CCN(C(=O)COc2ccccc2)CC1 -6.73%, CN1CC[C@H]2CN(C(=O)c3scc4c3OCCO4)C[C@@]2(C(=O)O)C1 41.3%, COc1ccc(CC(=O)NC2CCN(c3nc4ncccc4o3)C2)cc1 (configuration not stated) 83.9% [at 57.5 µM], CC(=O)N1CCC(N2CC3(C2)C(=O)N(CCCN2CCCC2=O)C(=O)[C@@H]2C[C@@H](O)CN23)CC1 -1.32%, CC1CCN(C(=O)CC2Sc3ncccc3N(C)C2=O)CC1 (configuration not stated) 0.879%, COc1cc(OC)cc(OCc2nnc(C(=O)N3CCC[C@@H]3C)n2-c2ccccc2)c1 22.1% [at 57.5 µM], CC(C)CN1CC2(C1)C(=O)N(CCCN1CCCC1=O)C(=O)[C@@H]1C[C@@H](O)CN12 4.85% [at 57.5 µM], CN(Cc1ccc2c(c1)OCO2)C(=O)C1(C)CCOCC1 5.41% [at 57.5 µM], CN(CCCc1nccn1C)C(=O)[C@H]1CCC[C@H](O)C1 8.87%, CN(CC1CCCN(CCc2cccc(C(F)(F)F)c2)C1)C(=O)c1ccc2[nH]ccc2c1 (configuration not stated) 0.225%, CCCS(=O)(=O)N1CCCCC1c1nc(-c2cnccn2)n[nH]1 (configuration not stated) 20.5%
